Test results from PMC7819943, “Rice protein-binding microarrays: a tool to detect cis-acting elements near promoter regions in rice”.
Some of the results follow.

Protein sequences, listed by entry. Tags and fused reporters are not part of them.
UniProt Q0JBA9, entry or part of it: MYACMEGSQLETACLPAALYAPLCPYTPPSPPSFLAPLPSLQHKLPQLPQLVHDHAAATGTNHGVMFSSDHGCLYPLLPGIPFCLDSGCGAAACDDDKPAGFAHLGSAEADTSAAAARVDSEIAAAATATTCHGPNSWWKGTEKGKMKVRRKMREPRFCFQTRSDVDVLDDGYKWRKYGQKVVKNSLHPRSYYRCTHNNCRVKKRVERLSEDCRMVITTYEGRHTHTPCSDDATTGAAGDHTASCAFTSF

biological target: OsWRKY34 (Oryza sativa, UniProt Q0JBA9 1-250); assay: protein-binding microarray (RPBM); PBS, 2% BSA, 51.3 ng/ul salmon testes DNA, 50 uM zinc acetate, 200 nM TF, 25 C, 1 h; high values mean tight binding; conditions: protein: recombinant; tags: N-terminal polyhistidine and DsRed monomer fusion (pET32a); label: CyDye5-dUTP incorporated in the synthesized complementary strand; 3' TTTTT single-stranded linker to array surface; dsDNA, one strand shown
How it was run: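 The binding signal for each feature is its fluorescence intensity in arbitrary units. An Axon 4000B scanner was used to read a custom Agilent array that had been made double-stranded with Cy5-dUTP primer extension, blocked with 2% BSA, incubated at 25 °C for 1 h with 200 nM protein in PBS, 2% BSA, salmon testes DNA and 50 µM zinc acetate, and washed. The protein was an N-terminal polyhistidine–DsRed transcription factor fusion from E. coli BL21-CodonPlus, purified on Ni–NTA.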

Sequence	binding signal
CAGCGTAGCCGGTTGGCGTGGGGTCGGGGCGTCGGCGTGACGGAGTCACCTAGTGCAG	12800 fluorescence intensity (a.u.)
CATCGCTCTCTTCCACTGGTTCGCTCTCTCCGTCAAGCCGCGGAGTCACCTAGTGCAG	8920 fluorescence intensity (a.u.)
TCCTCTAGTCAATGGTCAACTGTACGCGCGCGTTCATCTCCGGAGTCACCTAGTGCAG	10200 fluorescence intensity (a.u.)
GCTTATCATGGTCTGGTTAGTGGTTGATTGCTCATAGTTCCGGAGTCACCTAGTGCAG	13500 fluorescence intensity (a.u.)
ATTGTTTGGTTGTTCATTATAAAATTTAAGCAATCTGAAGCGGAGTCACCTAGTGCAG	8150 fluorescence intensity (a.u.)
TCGTTCCTTTTGTCGAATCTGGGAGACGGTGGCGGCGGGGCGGAGTCACCTAGTGCAG	16000 fluorescence intensity (a.u.)
CTTCGTTCGTTGGATTCGCTCTCGCGCGCCGCCGCCGCCGCGGAGTCACCTAGTGCAG	11200 fluorescence intensity (a.u.)
GCTTCTCTTGTTTGTAGCAGTAGGCTGCTACGCGAGCCAACGGAGTCACCTAGTGCAG	8070 fluorescence intensity (a.u.)
CTATACACTGTCATTCTTCGCTGCACAATCATGCCCATGGCGGAGTCACCTAGTGCAG	10700 fluorescence intensity (a.u.)
CTCACACAAACCTGCCGACCTGCCACCATCCAAGATCTTCCGGAGTCACCTAGTGCAG	9880 fluorescence intensity (a.u.)
CGATGTAATGCCGGGGTGGTTGTTTGGTGCAGCAGAAGGACGGAGTCACCTAGTGCAG	10500 fluorescence intensity (a.u.)
GGGCAACATCAGTGTCATCATTCCTCATGAGCACCTCAGCCGGAGTCACCTAGTGCAG	8850 fluorescence intensity (a.u.)
ATCATACTTTCTGCGTTTTAAAATATCGTTACCTAAATTTCGGAGTCACCTAGTGCAG	9100 fluorescence intensity (a.u.)
AAGGGCGGGGTGTTTTGGCTTCTCCAGCACACTTCCCTCCCGGAGTCACCTAGTGCAG	9300 fluorescence intensity (a.u.)
CCCTTCGCGGTTGGGCTCCGCCTCCGCCATCGTCGCCGACCGGAGTCACCTAGTGCAG	8080 fluorescence intensity (a.u.)
TAGTAGTATATTGTGTGCTGAGTTTTAGGTGATCTTGGTACGGAGTCACCTAGTGCAG	10100 fluorescence intensity (a.u.)
ATATTTGACGCCGTTGACTTTTTTAAACATATTTAACTGTCGGAGTCACCTAGTGCAG	14600 fluorescence intensity (a.u.)
GGTCGGTGTGCTAACTTCTTAGTTTATTATTCCCTTTTGCCGGAGTCACCTAGTGCAG	11000 fluorescence intensity (a.u.)
TTGCGCTTTTGCTTGCGGCCAGAACACAAGCATCTTCTTTCGGAGTCACCTAGTGCAG	8280 fluorescence intensity (a.u.)
CCTAGTCGGCTTCGCCTCCGCTTCCTCGTCTCGTCTCCCTCGGAGTCACCTAGTGCAG	8160 fluorescence intensity (a.u.)
ACTCTCTCCGTTTCAACTTATAAGATGTTTTGACTTTGGTCGGAGTCACCTAGTGCAG	10100 fluorescence intensity (a.u.)

Sequence	binding signal
ACACGATTAACTACGTACGATTTATTATACATCTTAGTTTCGGAGTCACCTAGTGCAG	8500 fluorescence intensity (a.u.)
ATTCTGCCCGCCTATTTTTTTCATAACTATTTTAATTGACCGGAGTCACCTAGTGCAG	9090 fluorescence intensity (a.u.)
CGGCCTCTCTGTCGCCGTCCGTCTCTGTCTTGATCTCTCACGGAGTCACCTAGTGCAG	8850 fluorescence intensity (a.u.)
ATCACATTTACCACCGGATAACCTCATGTTTTAGATAACTCGGAGTCACCTAGTGCAG	8180 fluorescence intensity (a.u.)
ATAAGGGATTTTGAGTTTTTGATTACACTGTTTGACCACTCGGAGTCACCTAGTGCAG	8420 fluorescence intensity (a.u.)
AATTAATCATGTGTTAATGGTTTTCATGTTTTCCGTATCACGGAGTCACCTAGTGCAG	9860 fluorescence intensity (a.u.)
TCTCTGTCTTTCTTTGCTTCCTCATTACCTTGGTTAATGTCGGAGTCACCTAGTGCAG	8520 fluorescence intensity (a.u.)
TTTTATGATTGATTTGGCACCACTGCTACAATAATGCATCCGGAGTCACCTAGTGCAG	8300 fluorescence intensity (a.u.)
CTTGTTGGATATCTTGAGCTATTTTTCTCCTGCAAACACCCGGAGTCACCTAGTGCAG	8770 fluorescence intensity (a.u.)
GCCTATTCTTTTCGCCACCGCTATCGCCACACATCACGGACGGAGTCACCTAGTGCAG	17500 fluorescence intensity (a.u.)
CGGCGACGACCTTCAGCGATGTTTTGTCACTGTCCCCGGCCGGAGTCACCTAGTGCAG	8360 fluorescence intensity (a.u.)
GCTTGCAGGGCTTGGTTGTTTCTTCTTCCGTTTTTTTTTACGGAGTCACCTAGTGCAG	13600 fluorescence intensity (a.u.)
GGGTGGGGATTTTTTTTTTCGGTGCTTGTTTAATCAAAGCCGGAGTCACCTAGTGCAG	15500 fluorescence intensity (a.u.)
GGTTCTTGGCCTCTTGCCTGTTGGTTGGGTTTGAAGGAGGCGGAGTCACCTAGTGCAG	10200 fluorescence intensity (a.u.)
TGCGTTTCTCAAATTATACAAGTCATGATGGATATGTCGTCGGAGTCACCTAGTGCAG	8170 fluorescence intensity (a.u.)
CAAGCCGTCCACCCACTTCCGCTTCCCCACGTGCCGCTCGCGGAGTCACCTAGTGCAG	8880 fluorescence intensity (a.u.)
CTTCTGCTGTTCTTGGTTGCGTTCATGCTTCCTTTTTTTTCGGAGTCACCTAGTGCAG	12600 fluorescence intensity (a.u.)
TCTCCTACACCCCACCCAATCCTCACCGTCCACTCCCAACCGGAGTCACCTAGTGCAG	10200 fluorescence intensity (a.u.)
CTGCAAACCCATCCGCCTCCGCACCGCATCGCACCTACAACGGAGTCACCTAGTGCAG	9030 fluorescence intensity (a.u.)
TCTCGTTCCTCTCTCTTCTCGCTGACTCGCTGTAGTTCACCGGAGTCACCTAGTGCAG	8410 fluorescence intensity (a.u.)
AGAAAGTACATCATTTTCCGCGCGCACGCTTCCCAAACTACGGAGTCACCTAGTGCAG	8480 fluorescence intensity (a.u.)

Sequence	binding signal
CCTCCGCCTCCGCGCCCACCGCCATGCTCCGGCCCTCCCTCGGAGTCACCTAGTGCAG	8220 fluorescence intensity (a.u.)
AGCCCTTGTCTATACGCATCCCTTCGGATTGCCAAATAAACGGAGTCACCTAGTGCAG	8280 fluorescence intensity (a.u.)
CACATAGTTGGAGGGGTTTTCTGCAAAATGGACATCTTCTCGGAGTCACCTAGTGCAG	8970 fluorescence intensity (a.u.)
AGAGGTGGAAGGGGATGGGGAGAAAAAAAAGGAGAGGGGACGGAGTCACCTAGTGCAG	8410 fluorescence intensity (a.u.)
GCCTCGAGCTCGCCGCCGCCGCCCCGCCGCCGCACACCATCGGAGTCACCTAGTGCAG	8050 fluorescence intensity (a.u.)
CTCACGCTACCCGCCCATCGATCTCGCGCCATCTCACAATCGGAGTCACCTAGTGCAG	11000 fluorescence intensity (a.u.)
CGAGCGTGTGTTAGGGGCATATCTGTGGGTGCGTGAATGTCGGAGTCACCTAGTGCAG	8970 fluorescence intensity (a.u.)
AAGCTTTACCTGGAGCCCACAACGCTATCCAAGGCTTTATCGGAGTCACCTAGTGCAG	8070 fluorescence intensity (a.u.)
AGTACAAACCATCTACAGTTGCATCTCTGCTCGATCGATCCGGAGTCACCTAGTGCAG	8350 fluorescence intensity (a.u.)
AGGAATCGTCGTCCACTGCCTACAGCAACAGCAACCAACACGGAGTCACCTAGTGCAG	8290 fluorescence intensity (a.u.)
AACTAACCAGCATTTTTCCCCAGTTCTTCGGATCTGGACACGGAGTCACCTAGTGCAG	9190 fluorescence intensity (a.u.)
TAAAAATAATTATTGTCATTGTCATAGTGTACCCTTCTGCCGGAGTCACCTAGTGCAG	9650 fluorescence intensity (a.u.)
CAGGTGGAGGTGGAGGCGGTGGCGGTGAGGGAGGCGGGCACGGAGTCACCTAGTGCAG	13500 fluorescence intensity (a.u.)
CAAAATTCTGCGTTTTTCCTATTCCTATGTTTTCTCGTTCCGGAGTCACCTAGTGCAG	9240 fluorescence intensity (a.u.)
CTTAGCAACAACCACTTCCATTCATTGGGGAGGGAAAGCGCGGAGTCACCTAGTGCAG	8590 fluorescence intensity (a.u.)
ATTCTGCCGGCCGGCCGCTGCCCTTCTTCCTCTCCGCGCGCGGAGTCACCTAGTGCAG	10800 fluorescence intensity (a.u.)
TGCTTCAATTATCCAGCTTTGGAAACTCGCTGTTTGTTTCCGGAGTCACCTAGTGCAG	8510 fluorescence intensity (a.u.)
CCATCTCCAATTCTCCATCGATCATCTATCTCTCACGATCCGGAGTCACCTAGTGCAG	9120 fluorescence intensity (a.u.)
CATTTTAGTCTACCAGCTGCATTTCTTCTGCTTTAAGGACCGGAGTCACCTAGTGCAG	8650 fluorescence intensity (a.u.)
AGAGAGAGGGGAGAGGGGTGGAAGGGGAATATGGTAGCTGCGGAGTCACCTAGTGCAG	12600 fluorescence intensity (a.u.)
TTTCTTCGTCCTCTTGGTTTCCCTTTCAATTCATTCATTTCGGAGTCACCTAGTGCAG	8460 fluorescence intensity (a.u.)

As a working copy, some entries already given:
Sequence	binding signal
CCTCCGCCTCCGCGCCCACCGCCATGCTCCGGCCCTCCCTCGGAGTCACCTAGTGCAG	8220 fluorescence intensity (a.u.)
AGCCCTTGTCTATACGCATCCCTTCGGATTGCCAAATAAACGGAGTCACCTAGTGCAG	8280 fluorescence intensity (a.u.)
CACATAGTTGGAGGGGTTTTCTGCAAAATGGACATCTTCTCGGAGTCACCTAGTGCAG	8970 fluorescence intensity (a.u.)

The listing continues.

Sequence	binding signal
AAGTCACAAATCTCTACGTTTTTTTTCCTCGCGAGGCGTACGGAGTCACCTAGTGCAG	9450 fluorescence intensity (a.u.)
GGTTTTTTTTCAGCGAAATTTATTTTTCACCATTTACTTTCGGAGTCACCTAGTGCAG	10300 fluorescence intensity (a.u.)
GACGATAATTAGGGGCCTGTTCACTTTGATGCTATTTTTACGGAGTCACCTAGTGCAG	9230 fluorescence intensity (a.u.)
TCAATTTTTAGGTTTTTGTGTCTAGCGTTTGACCGTCCGTCGGAGTCACCTAGTGCAG	8580 fluorescence intensity (a.u.)
AGTTTCCGTCCGTTTCCGATCCGTTTTCATCCCTACACCCCGGAGTCACCTAGTGCAG	13000 fluorescence intensity (a.u.)
TCCCGGCAGTTCTTACCCTGCATCATCAGAGTGGTCATTACGGAGTCACCTAGTGCAG	9320 fluorescence intensity (a.u.)
GCGCGCGCGTCCTTCGGGCACCCTCGCACCGCACCGTCCGCGGAGTCACCTAGTGCAG	8200 fluorescence intensity (a.u.)
ACGAACCTAAGCACTTCCAAATCAAATCAATCAAAGCTCTCGGAGTCACCTAGTGCAG	56100 fluorescence intensity (a.u.)
ATGTGTGGATTTATAAGGGTGAGTATATGTGTTTCGGGAACGGAGTCACCTAGTGCAG	8140 fluorescence intensity (a.u.)
ACTACCCACTTGCATCCCTAAATTTTAGTACTTTTCTCATCGGAGTCACCTAGTGCAG	9300 fluorescence intensity (a.u.)
GGGTGGGTGATCTATCGATACAATGCATGCGTGGGCTTCTCGGAGTCACCTAGTGCAG	15800 fluorescence intensity (a.u.)
GTTTTTCTTGTTCCTTTTCTGAGCTAGATTTCTTGCTGCTCGGAGTCACCTAGTGCAG	8760 fluorescence intensity (a.u.)
CGATGGTTTGGTTTACCGCTTTGCCCCGGTTCTTCGCTTTCGGAGTCACCTAGTGCAG	8580 fluorescence intensity (a.u.)
AGAGTCGCAAGGGTAGGCAAGGTAATGCAAAATGATTATACGGAGTCACCTAGTGCAG	8050 fluorescence intensity (a.u.)
GCTTTACCTGTTTACCTCAAGTTGCAGCTGATTTTCACAACGGAGTCACCTAGTGCAG	8380 fluorescence intensity (a.u.)
CTGTTTTACAATTGTATTCCTGTCAGAATCCTGTGTTTTTCGGAGTCACCTAGTGCAG	11100 fluorescence intensity (a.u.)
CGACAAAACACCCCGATTCCACCCACCCCACCACGAAACCCGGAGTCACCTAGTGCAG	8660 fluorescence intensity (a.u.)
GTTTGTGCCGCCCCGTCGCCCGACGCCGTCACCTCCGCTCCGGAGTCACCTAGTGCAG	9650 fluorescence intensity (a.u.)
TGGGTTGGGATTTGTGCTTGTTTTTTTTTTTTGTGCGTGTCGGAGTCACCTAGTGCAG	16600 fluorescence intensity (a.u.)
CCTCCACCTCTAAGTCAAGTCACCACCGCCATCATCCATGCGGAGTCACCTAGTGCAG	8560 fluorescence intensity (a.u.)
CATCCATCTTCTACCCATCCCAATCTCCCTAGCCAGCATACGGAGTCACCTAGTGCAG	8020 fluorescence intensity (a.u.)
